# Laboratory results from patent US8551693B2 (priority 2008, dated 2013).
# For at least one compound, name, drawing or mass did not settle the structure.
# Experiments:
# [1] = molecular target: T1, Nav1.5^Mut sodium channel (mutated human Nav1.5) (Homo sapiens, UniProt Q14524, F1486Q/K1419C); format: cell-based; conditions: VC/Nav1.5 #12 and #14 cell lines; FIG. 4B
# T1 construct: expressed in transfected cells; host or cells: HEK293 cells stably expressing the Cameleon (Venus/CFP) calcium biosensor; clone VC/Nav1.5 #12
# [2] = test system: VC #7 control Cameleon HEK293 cell line; experiment: Cameleon FRET fluorescence microplate assay in control Cameleon cell line VC #7 (does not express a sodium channel); format: cell-based, human; conditions: VC #7 cell line that does not express a sodium channel; FIG. 4B
# From the text: The reporter cell lines described herein are derived from the HEK293 cell line, which, in turn, is derived from human embryonic kidney. […] To generate a Nav1.5^Mut/Cameleon reporter cell line, the first step was to establish a HEK293 cell line which expresses the Cameleon calcium biosensor alone. HEK293 cells were transfected with a vector (pIREShyg3, Clonetech, Cat. No. 631620) encoding the Cameleon construct (as described in Evanko and Haydon, Cell Calcium (2005) 37: 341-348). This cell line that express the Cameleon alone was then stably transfected with the pcDNA4neo-Nav1.5^Mut expression vector (see FIG. 7A for the sequence of Nav1.5^Mut). […] The resulting cell lines were then assessed in patch-clamp for their capacity to produce robust current amplitude.
# Cameleon is a fluorescent biosynthetic Ca^2+ indicator constructed by inserting a Ca^2+ sensor (Calmodulin and M13, a calmodulin-binding protein) between two mutated forms of green fluorescent protein (GFP): the energy acceptor Venus, a derivative of yellow fluorescent protein (YFP), and the energy donor, cyan fluorescent protein (CFP) (Evanko D S and Haydon P G, Cell calcium 2005, 37: 341-348). Cameleon fluorescence is affected by differences in the concentration of Ca^2+ that alter the amount of fluorescence resonance energy transfer (FRET) between CFP and Venus. […]
smiles,measurement,setting,value
COc1ccc(C(=O)O[C@H]2CC[C@@]3(C)[C@@H]4CC[C@H]5[C@]6(O)C[C@H](O)[C@@]7(O)[C@@H](CN8C[C@@H](C)CC[C@H]8[C@@]7(C)O)[C@]6(O)C[C@@]53O[C@]24O)cc1OC [veratridine],FRET response to treatment,[1],respond
same,FRET response to treatment,[2],respond only to ionomycin
